Patent US20180187196, “INHIBITORS OF DEK PROTEIN AND RELATED METHODS” (THE REGENTS OF THE UNIVERSITY OF MICHIGAN, published 2018)
Protein sequences can lack the tags named with them. Construct, isoform or probe ends are uncertain for at least one entry.

Key:
DEK (Homo sapiens) = target: T1, DEK (Homo sapiens) (UniProt P35659); assay: SELEX; settings: described as high affinity, binds tightly; binding buffer 20 mM Tris pH 7.6, 100 mM NaCl, 5 mM MgCl2, room temperature; purified recombinant protein; single-stranded DNA; variant of DEK aptamer 64
T1 sequence (looked up, limits assumed): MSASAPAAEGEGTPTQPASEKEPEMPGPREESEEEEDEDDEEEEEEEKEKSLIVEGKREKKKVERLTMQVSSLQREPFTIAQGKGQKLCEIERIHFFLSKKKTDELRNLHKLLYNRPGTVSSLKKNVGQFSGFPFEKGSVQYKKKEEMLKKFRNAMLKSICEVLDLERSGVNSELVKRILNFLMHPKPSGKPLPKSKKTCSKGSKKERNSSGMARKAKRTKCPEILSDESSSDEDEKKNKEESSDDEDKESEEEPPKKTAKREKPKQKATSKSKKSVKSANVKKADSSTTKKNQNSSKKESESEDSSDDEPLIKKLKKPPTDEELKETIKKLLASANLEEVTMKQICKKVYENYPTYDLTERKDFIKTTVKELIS

[1] = target: T2, DEK (endogenous, mouse knee joint) (Mus musculus) (UniProt Q7TNV0); assay: activity in cells; settings: in vivo zymosan-induced arthritis; 5, 50 and 100 ng/knee significantly reduce joint inflammation vs control aptamer; protein in cells; single-stranded DNA; variant of DEK aptamer 64
T2 sequence (looked up, limits assumed): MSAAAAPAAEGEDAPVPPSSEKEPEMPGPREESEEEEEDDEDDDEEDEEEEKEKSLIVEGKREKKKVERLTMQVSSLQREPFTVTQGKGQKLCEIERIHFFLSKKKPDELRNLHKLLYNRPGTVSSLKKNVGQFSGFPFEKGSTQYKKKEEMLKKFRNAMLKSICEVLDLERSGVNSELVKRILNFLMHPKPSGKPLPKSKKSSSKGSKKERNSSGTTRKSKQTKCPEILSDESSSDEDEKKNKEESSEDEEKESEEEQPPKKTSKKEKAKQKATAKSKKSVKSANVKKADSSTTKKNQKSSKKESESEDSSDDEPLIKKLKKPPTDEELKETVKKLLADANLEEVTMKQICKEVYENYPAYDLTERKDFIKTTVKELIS

[2] = target: T3, DEK (endogenous, released by activated neutrophils) (Homo sapiens) (UniProt P35659); assay: activity in cells; settings: protein in cells, single-stranded DNA
T3 sequence (looked up, limits assumed): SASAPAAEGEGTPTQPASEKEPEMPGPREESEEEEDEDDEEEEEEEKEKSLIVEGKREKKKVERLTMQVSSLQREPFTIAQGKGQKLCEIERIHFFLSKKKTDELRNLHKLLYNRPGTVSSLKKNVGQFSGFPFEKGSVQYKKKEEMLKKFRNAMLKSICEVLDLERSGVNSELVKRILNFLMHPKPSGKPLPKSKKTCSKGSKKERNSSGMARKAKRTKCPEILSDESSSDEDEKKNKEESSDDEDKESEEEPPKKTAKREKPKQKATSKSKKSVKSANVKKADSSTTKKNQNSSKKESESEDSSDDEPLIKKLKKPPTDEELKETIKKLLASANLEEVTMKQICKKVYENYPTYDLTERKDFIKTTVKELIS

[3] = impedes NET formation by activated human neutrophils, aptamers at 1-50 ng/ml

Row | Sequence | selection result (DEK (Homo sapiens)) | functional effect of the aptamer [1] | functional effect of the aptamer ([2]; dose-dependent block of PMA-induced NETs in human neutrophils, variant of DEK aptamer 64, dose not given here) | functional effect of the aptamer [2, 3]
1 | GGGGTTAAATATTCCCACATTGCCTGCGCCAGTACAAATAG [DTA 64 (40-nt core)] | selected | active | active | –
2 | ATAGGGAGTCGACCGACCAGAATACCGTGGCATCTGGTTGTAGCATCACGTCTTATGCGGCCGTATGTGCGTCTACATCTAGACT [DEK aptamer 85] | – | – | – | active
3 | ATAGGGAGTCGACCGACCAGAAGGGGTTAAATATTCCCACATTGCCTGCGCCAGTACAAATAGTATGTGCGTCTACATCTAGACT [DEK aptamer 64] | – | – | – | active
